Laboratory results taken from article PMC7427987.
Results are given in words; binding and its absence hold for the method and conditions named. Binding seen in cells or lysates may run through a third protein. Some entries that bind do so weakly or less than the wild type.

Chains of the proteins cited; added tags and fusions are not shown.
UniProt P01106: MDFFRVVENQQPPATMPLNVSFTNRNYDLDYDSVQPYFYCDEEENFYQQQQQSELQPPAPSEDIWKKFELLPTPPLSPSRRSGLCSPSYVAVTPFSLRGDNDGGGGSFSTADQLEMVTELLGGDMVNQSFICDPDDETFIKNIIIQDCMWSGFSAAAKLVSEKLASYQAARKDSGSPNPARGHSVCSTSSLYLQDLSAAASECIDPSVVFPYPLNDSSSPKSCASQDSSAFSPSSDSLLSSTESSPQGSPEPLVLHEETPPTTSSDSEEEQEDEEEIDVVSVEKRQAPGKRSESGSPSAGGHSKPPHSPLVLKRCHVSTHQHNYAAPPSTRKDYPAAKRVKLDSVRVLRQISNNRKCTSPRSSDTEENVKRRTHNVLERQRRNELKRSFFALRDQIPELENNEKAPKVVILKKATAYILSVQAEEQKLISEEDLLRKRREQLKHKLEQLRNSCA
UniProt Q16665: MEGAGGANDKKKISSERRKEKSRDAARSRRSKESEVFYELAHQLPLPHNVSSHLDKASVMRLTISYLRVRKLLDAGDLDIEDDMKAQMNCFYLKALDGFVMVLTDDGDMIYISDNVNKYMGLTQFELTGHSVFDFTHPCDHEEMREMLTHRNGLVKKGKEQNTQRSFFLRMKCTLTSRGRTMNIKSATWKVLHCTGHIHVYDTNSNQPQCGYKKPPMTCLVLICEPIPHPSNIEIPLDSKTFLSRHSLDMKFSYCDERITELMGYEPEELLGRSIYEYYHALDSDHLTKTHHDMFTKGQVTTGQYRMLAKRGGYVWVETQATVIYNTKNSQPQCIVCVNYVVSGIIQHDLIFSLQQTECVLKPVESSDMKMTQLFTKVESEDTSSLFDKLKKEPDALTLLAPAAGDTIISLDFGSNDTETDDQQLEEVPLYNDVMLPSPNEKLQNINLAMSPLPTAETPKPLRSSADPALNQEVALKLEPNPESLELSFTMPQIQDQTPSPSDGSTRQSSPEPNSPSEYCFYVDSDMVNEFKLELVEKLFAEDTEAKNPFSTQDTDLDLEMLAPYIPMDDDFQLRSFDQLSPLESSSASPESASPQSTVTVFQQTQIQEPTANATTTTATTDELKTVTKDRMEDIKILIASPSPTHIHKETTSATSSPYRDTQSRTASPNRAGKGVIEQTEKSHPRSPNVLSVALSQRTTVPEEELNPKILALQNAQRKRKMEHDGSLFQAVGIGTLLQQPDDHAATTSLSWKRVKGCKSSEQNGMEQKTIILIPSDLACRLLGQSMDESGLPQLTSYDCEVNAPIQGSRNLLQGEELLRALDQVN

Biological target: T1, FBX8 (human (endogenous in HT29)) (UniProt Q9NRD0)
T1 sequence: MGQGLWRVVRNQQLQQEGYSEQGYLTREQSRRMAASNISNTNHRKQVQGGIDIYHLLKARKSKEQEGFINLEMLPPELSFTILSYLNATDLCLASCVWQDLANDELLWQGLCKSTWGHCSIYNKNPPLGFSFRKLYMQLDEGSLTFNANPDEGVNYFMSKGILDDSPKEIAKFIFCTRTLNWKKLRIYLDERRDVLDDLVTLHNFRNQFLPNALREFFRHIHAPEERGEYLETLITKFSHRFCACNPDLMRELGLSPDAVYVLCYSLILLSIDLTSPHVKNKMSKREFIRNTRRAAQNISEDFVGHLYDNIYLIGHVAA
Assay: co-IP; extracts of SW620, SW480 and HT29 cells precleared with IgG and protein A+G agarose (2 h, 4 °C); primary antibodies against FBX8, HIF-1α, CDK4 and C-Myc overnight at 4 °C; western blot

binding	Substance
binds	C-Myc (from UniProt P01106 1-454)
binds	HIF-1α (from UniProt Q16665 1-826)
